Results on one compound are retold here after patent publication US10085973B2, “Pharmaceutical composition containing a compound having a thrombopoietin receptor agonistic activity” (Shionogi & Co., Ltd., priority 2012, dated 2018).

Some results come without the dose or concentration used.

The series has as its system platelet count. The series can be described thus: PD model from phase 1 trial in healthy male adults (profile of platelet count). In kind it is in vivo, human. An excerpt:
Using the plasma concentration of the drug and the platelet count data of 54 cases obtained in phase 1 trial carried out in Japan to healthy male adults, a PK/PD model was constructed that can describe pharmacokinetics and a profile of a platelet count. The PK model describing pharmacokinetics was a three-compartment model including three compartments in the absorption process in order to explain the delay in absorption. The PD model describing the relation between the plasma concentration and the profile of platelets counts was a model including five compartments in order to explain the maturation process of platelets. […] We assumed that the distributions of respective model parameters and the distributions of the residual errors of the models follow a log-normal distribution. Parameters were estimated by using the first order conditional estimation method with interaction in a software NONMEM (version VI, level 2.0).

Turning to `CCCCCCO[C@@H](C)c1cccc(-c2csc(NC(=O)c3cc(Cl)c(/C=C(\C)C(=O)O)c(Cl)c3)n2)c1OC` [lusutrombopag, (E)-3-[2,6-dichloro-4-[4-[3-[(S)-1-hexyloxyethyl]-2-methoxyphenyl]-thiazol-2-ylcarbamoyl]-phenyl]-2-methylacrylic acid], the “PLT0, mean” value was determined as 201000 µL⁻¹ and the “γ (feedback coefficient), mean” value turned out to be 0.309.
